From PMC11896610
Results are given in words; binding and its absence hold for the method and conditions named. In cells and extracts the contact can be indirect. Some results given as binding are weak or reduced against the parent protein; the word gives no strength. Sequences can lack the tags named with a protein. One block for each binder: values may come before it.

Legend:
TEDC2-V5-APEX2 (human) = target: T1, TEDC2-V5-APEX2 (human) (UniProt Q7L2K0); assay: co-IP; TEDC2-V5-APEX2 captured on V5-Trap magnetic agarose from lysate of TEDC2-/- cells rescued with it (50 mM Tris pH 7.5, 150 mM NaCl, 1% Triton X-100, 1 mM DTT; 1 hr, 4 °C), western blot; TEDC1 was also precipitated from TUBD1-/- and TUBE1-/- cells
T1 sequence: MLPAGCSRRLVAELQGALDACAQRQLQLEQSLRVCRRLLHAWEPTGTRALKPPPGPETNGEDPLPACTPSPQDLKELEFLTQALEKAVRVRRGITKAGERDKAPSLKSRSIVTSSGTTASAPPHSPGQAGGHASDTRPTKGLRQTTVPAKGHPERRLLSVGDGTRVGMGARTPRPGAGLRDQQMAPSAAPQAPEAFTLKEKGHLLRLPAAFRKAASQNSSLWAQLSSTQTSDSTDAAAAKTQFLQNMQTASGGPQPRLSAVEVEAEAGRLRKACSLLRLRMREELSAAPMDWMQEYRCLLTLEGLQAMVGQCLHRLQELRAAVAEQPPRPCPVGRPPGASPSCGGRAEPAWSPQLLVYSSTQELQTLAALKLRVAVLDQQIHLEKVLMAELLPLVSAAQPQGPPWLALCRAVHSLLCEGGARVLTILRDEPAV

[1] = target: T2, TEDC1-Halotag-3xFlag (human) (UniProt Q86SX3); assay: co-IP; TEDC1-Halotag-3xFlag captured on Halo-Trap magnetic agarose from lysate of TEDC1-/- cells rescued with it (50 mM Tris pH 7.5, 150 mM NaCl, 1% Triton X-100, 1 mM DTT; 1 hr, 4 °C), western blot; TEDC2 was also precipitated from TUBD1-/- and TUBE1-/- cells
T2 sequence: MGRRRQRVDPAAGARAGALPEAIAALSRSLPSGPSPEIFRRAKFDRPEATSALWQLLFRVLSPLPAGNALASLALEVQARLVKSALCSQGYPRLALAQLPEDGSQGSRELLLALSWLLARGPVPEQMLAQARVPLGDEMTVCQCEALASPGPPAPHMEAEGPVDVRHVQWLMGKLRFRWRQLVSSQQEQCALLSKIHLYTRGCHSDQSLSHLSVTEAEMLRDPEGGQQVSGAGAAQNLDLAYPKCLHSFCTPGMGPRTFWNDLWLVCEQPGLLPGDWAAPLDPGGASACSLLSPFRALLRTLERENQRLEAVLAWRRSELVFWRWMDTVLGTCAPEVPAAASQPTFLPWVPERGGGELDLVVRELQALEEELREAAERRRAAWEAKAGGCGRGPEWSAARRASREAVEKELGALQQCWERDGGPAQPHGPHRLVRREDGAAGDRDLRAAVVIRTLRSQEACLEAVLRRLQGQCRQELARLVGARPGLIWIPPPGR

- binding (TEDC2-V5-APEX2 (human)): binds
B1: TEDC1 (protein, UniProt Q86SX3 1-495)
chain: T2 sequence

- binding [1]: binds
B2: TEDC2 (protein, UniProt Q7L2K0 1-433)
chain: T1 sequence
